# Experimental data: the supplement of paper PMC6411743
# By UniProt entry, the sequences of proteins in these tests, tags left out. Where a name states a change or a piece, a line headed by the entry shows the natural chain unless it says otherwise.
# UniProt P09525: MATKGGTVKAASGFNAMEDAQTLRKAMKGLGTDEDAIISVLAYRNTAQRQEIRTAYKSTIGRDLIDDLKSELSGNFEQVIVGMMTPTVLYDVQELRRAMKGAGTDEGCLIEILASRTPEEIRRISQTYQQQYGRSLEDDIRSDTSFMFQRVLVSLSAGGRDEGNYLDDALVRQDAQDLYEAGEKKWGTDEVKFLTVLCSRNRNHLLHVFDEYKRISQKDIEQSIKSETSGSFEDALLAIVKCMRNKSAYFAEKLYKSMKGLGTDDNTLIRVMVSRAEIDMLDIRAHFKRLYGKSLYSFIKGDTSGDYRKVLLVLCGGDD
# UniProt P08567: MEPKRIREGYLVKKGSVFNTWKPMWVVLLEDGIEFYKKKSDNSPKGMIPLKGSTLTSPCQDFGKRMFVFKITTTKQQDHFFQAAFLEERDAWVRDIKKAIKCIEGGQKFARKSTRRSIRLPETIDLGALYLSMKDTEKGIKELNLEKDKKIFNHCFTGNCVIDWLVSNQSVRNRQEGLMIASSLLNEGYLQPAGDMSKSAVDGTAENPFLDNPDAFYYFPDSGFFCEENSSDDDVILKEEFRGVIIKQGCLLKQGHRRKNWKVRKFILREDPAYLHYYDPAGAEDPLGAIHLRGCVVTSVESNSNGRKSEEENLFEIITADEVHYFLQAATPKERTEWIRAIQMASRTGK
# UniProt P16885: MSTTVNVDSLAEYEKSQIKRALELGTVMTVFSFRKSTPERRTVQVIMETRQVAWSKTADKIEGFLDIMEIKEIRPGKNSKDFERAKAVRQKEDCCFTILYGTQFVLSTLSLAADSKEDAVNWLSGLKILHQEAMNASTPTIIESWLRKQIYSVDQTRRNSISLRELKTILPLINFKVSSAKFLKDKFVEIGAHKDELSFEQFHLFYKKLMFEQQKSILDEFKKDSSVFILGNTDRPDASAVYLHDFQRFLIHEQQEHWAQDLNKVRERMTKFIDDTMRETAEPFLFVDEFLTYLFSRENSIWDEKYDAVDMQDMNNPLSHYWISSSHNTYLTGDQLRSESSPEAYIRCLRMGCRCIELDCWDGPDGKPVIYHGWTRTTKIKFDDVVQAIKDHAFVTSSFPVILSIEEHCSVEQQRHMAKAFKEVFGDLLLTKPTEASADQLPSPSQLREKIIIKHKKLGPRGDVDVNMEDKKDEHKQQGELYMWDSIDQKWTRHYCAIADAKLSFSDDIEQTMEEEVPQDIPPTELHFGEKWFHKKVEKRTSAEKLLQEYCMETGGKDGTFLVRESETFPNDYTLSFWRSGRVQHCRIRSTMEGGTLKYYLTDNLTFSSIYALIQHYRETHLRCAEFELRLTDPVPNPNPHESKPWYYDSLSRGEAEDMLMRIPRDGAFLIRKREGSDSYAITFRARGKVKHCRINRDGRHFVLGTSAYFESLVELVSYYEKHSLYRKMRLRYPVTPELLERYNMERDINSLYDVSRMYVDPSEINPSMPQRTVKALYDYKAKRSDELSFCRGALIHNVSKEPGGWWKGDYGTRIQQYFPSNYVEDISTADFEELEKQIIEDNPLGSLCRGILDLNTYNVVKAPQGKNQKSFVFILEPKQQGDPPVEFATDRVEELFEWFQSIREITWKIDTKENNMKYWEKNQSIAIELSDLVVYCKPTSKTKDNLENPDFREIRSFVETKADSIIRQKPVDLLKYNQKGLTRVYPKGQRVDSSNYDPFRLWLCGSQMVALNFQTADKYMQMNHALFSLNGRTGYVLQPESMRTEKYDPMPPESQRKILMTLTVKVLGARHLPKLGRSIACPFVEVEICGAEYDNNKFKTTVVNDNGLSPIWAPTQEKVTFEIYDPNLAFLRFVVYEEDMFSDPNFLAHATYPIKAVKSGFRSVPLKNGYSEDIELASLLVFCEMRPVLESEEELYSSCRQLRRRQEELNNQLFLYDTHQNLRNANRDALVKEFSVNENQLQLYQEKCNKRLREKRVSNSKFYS
# UniProt P04843: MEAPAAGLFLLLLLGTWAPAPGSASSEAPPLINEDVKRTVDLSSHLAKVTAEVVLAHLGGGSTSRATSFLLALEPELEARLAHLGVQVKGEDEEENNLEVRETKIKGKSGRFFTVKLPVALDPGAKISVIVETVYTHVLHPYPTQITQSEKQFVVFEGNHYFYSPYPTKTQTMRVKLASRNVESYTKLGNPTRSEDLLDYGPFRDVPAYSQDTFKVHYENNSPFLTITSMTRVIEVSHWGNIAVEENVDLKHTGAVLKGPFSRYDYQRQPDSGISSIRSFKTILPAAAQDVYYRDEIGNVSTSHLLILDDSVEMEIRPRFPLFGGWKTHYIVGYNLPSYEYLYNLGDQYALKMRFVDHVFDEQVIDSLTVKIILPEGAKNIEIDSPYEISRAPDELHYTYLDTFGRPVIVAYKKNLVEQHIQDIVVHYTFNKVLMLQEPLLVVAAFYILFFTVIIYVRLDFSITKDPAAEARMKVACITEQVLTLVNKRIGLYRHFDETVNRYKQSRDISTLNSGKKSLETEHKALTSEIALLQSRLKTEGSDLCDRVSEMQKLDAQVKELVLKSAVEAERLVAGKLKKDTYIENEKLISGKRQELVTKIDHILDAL
# UniProt P07108: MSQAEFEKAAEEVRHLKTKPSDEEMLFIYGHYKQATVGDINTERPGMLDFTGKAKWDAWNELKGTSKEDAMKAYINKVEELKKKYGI
# UniProt P09488: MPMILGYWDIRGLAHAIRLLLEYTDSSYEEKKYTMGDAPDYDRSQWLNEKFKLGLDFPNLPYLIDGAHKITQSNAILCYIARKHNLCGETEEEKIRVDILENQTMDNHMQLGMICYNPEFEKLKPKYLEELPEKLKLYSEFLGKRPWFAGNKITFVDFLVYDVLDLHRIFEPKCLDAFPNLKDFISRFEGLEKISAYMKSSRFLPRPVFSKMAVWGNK
# UniProt P07237: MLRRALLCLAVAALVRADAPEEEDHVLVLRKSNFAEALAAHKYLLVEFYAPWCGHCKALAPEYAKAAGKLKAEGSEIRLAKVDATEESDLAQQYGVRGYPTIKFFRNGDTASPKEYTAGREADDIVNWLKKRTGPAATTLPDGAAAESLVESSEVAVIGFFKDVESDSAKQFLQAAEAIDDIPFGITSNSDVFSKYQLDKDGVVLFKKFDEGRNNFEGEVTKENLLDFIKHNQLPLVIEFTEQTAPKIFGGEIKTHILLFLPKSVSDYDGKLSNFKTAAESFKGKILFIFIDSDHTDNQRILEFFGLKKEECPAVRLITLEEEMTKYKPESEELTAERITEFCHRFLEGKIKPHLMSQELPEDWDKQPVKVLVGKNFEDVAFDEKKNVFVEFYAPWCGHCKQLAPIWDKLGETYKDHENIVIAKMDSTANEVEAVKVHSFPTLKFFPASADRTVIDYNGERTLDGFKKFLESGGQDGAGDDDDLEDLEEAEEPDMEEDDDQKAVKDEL
# UniProt P16150: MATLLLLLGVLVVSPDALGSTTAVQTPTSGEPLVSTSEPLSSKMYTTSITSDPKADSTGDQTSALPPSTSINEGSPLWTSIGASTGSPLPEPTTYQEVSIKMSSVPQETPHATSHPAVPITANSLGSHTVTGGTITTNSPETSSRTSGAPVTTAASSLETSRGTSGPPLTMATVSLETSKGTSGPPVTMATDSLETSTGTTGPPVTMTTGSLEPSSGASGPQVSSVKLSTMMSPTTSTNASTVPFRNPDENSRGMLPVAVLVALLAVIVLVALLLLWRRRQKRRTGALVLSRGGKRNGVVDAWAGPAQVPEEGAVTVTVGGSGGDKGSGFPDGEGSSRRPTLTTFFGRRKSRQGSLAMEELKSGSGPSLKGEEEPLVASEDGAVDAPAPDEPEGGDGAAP
# UniProt P05141: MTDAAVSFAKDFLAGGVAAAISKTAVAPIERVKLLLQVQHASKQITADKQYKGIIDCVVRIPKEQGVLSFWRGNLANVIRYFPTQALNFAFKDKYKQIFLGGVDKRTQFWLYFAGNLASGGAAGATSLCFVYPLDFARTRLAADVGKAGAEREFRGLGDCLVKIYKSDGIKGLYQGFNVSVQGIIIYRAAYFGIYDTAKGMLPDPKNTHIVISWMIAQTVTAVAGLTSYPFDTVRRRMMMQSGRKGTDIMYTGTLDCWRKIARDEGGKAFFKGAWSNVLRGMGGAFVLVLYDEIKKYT
# UniProt P04921: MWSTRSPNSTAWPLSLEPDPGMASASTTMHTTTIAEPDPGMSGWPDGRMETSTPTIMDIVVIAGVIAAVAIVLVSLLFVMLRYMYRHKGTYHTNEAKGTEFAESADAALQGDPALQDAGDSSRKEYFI
# UniProt P02794, whole entry: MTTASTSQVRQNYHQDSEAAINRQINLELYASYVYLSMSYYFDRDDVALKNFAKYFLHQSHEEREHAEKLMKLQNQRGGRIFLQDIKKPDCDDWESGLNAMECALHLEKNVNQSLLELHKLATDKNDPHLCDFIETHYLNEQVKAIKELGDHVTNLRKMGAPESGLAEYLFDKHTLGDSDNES
# UniProt P01737: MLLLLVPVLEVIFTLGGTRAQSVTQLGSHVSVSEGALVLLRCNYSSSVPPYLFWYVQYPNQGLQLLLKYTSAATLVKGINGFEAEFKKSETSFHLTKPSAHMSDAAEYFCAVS
# UniProt O96017, whole entry: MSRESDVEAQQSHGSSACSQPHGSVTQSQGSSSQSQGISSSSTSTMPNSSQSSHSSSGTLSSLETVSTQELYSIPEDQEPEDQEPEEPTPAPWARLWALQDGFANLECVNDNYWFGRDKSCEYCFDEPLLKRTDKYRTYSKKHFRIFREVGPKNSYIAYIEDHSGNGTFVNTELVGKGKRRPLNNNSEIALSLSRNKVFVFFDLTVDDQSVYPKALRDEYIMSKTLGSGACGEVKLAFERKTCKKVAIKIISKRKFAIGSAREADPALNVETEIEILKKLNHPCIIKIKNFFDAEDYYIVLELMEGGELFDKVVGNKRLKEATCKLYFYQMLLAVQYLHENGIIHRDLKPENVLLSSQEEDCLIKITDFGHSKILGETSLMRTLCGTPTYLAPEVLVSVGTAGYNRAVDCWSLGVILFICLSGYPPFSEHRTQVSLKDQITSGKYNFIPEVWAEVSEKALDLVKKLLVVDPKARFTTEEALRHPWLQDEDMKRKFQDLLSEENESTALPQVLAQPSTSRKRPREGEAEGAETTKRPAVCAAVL
# UniProt P11216: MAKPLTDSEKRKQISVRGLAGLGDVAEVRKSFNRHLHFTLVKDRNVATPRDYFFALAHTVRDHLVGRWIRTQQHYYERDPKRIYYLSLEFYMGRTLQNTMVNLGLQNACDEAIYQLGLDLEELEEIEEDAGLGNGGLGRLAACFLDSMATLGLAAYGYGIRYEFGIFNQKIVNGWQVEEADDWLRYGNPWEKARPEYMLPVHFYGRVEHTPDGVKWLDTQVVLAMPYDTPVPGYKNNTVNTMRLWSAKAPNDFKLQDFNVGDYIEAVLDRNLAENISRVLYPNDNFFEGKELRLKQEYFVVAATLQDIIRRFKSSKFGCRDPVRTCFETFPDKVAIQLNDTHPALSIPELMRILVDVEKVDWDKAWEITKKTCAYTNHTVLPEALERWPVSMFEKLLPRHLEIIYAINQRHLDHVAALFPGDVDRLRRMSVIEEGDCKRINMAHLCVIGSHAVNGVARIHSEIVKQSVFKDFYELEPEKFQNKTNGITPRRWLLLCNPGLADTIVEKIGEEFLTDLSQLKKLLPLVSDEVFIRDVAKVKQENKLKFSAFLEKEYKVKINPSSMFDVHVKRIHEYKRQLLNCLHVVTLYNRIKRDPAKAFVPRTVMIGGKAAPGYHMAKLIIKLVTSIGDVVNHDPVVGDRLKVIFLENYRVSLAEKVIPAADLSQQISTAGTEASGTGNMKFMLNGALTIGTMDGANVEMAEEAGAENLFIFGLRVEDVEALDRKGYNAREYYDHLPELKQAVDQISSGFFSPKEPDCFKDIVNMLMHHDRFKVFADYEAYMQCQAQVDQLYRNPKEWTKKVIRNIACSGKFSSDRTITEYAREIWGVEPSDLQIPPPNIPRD
# UniProt P09382, whole entry: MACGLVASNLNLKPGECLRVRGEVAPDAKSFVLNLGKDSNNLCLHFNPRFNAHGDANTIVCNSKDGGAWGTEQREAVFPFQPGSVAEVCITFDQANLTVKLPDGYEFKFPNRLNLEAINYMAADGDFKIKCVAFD
# UniProt O95997: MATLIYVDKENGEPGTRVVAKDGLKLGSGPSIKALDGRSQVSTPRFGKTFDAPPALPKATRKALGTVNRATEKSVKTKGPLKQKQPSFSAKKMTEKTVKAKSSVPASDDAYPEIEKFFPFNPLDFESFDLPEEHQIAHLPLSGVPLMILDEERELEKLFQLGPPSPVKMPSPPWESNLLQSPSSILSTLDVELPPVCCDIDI
# UniProt Q01081: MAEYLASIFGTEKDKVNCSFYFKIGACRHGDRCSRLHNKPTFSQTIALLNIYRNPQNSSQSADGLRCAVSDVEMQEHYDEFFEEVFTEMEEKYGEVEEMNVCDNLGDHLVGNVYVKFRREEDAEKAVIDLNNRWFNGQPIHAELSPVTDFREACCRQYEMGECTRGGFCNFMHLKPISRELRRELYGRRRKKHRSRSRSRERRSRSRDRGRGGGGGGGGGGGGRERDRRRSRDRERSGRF
# ± gives the standard deviation of the averaged measurements. The entries are a selection whose mix differs from that of the whole data set. Small differences around the control level are noise.
# Compound: Nc1ncnc2c1ncn2[C@@H]1O[C@H](COP(=O)(O)OP(=O)(O)NP(=O)(O)O)[C@@H](O)[C@H]1O [adenylyl imidodiphosphate]
# Assay: NP40-soluble protein abundance relative to vehicle (solubility fold change) (ratio); higher = more soluble protein in presence of AMP-PNP
# Settings: concentration: 0.1mM
# Outline: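 In three independent experiments, Jurkat crude lysate made by Dounce homogenisation was treated for 10 min at room temperature and then 3 min at 37 °C with eight concentrations ranging from 0.1 to 10 mM. It was then solubilised with 0.8% NP40 plus benzonase for 60 min at 4 °C and ultracentrifuged. The supernatant was TMT-labelled for LC-MS/MS, and each value is the fold change against the detergent-processed vehicle for the same replicate, using vsn-normalised intensities.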
row,Target,NP40-soluble protein abundance
1,UniProt P09525 and related entries,1.01 ± 0.019
2,PLEK (UniProt P08567),1.03 ± 0.07
3,UniProt P15529-2|P15529-3|P15529-4|P15529-5|P15529-6|P15529-7,0.957 ± 0.026
4,UniProt P16298 and related entries,0.975 ± 0.016
5,PLCG2 (UniProt P16885),0.998 ± 0.031
6,RPN1 (UniProt P04843),0.997 ± 0.013
7,RB1 (UniProt P06400),1 ± 0.011
8,DBI (UniProt P07108),0.979 ± 0.018
9,UniProt P09488 and related entries,1.02 ± 0.084
10,ETS1 (UniProt P14921),0.98 ± 0.031
11,P4HB (UniProt P07237),1 ± 0.014
12,HSPA5 (UniProt P11021),0.982 ± 0.042
13,UniProt P07954-2,1.02 ± 0.013
14,HSPA4L (UniProt O95757),0.982 ± 0.036
15,SPN (UniProt P16150),0.996 ± 0.04
16,SLC25A5 (UniProt P05141),1.03 ± 0.048
17,PAK4 (UniProt O96013),0.982 ± 0.022
18,LAMP1 (UniProt P11279),0.984 ± 0.084
19,UniProt P04921 and related entries,1.25 ± 0.37

row,Target,NP40-soluble protein abundance
1,FTH1 (UniProt P02794),1.04 ± 0.059
2,UniProt P16383 and related entries,1.01 ± 0.025
3,UCHL3 (UniProt P15374),1.01 ± 0.037
4,UniProt P11498 and related entries,1.018 ± 0.0058
5,ACADS (UniProt P16219),1.01 ± 0.037
6,GLUD1 (UniProt P00367),0.978 ± 0.012
7,UniProt P01737,1.01 ± 0.064
8,GAA (UniProt P10253),0.995 ± 0.036
9,SLC2A3 (UniProt P11169),1.01 ± 0.021
10,UniProt P16930 and related entries,1.02 ± 0.03
11,UniProt O96017 and related entries,0.979 ± 0.043
12,H2AFX (UniProt P16104),0.985 ± 0.077
13,CRYZL1 (UniProt O95825),0.974 ± 0.021
14,PYGB (UniProt P11216),1.03 ± 0.021
15,HSP90AB1 (UniProt P08238),1.03 ± 0.037
16,LGALS1 (UniProt P09382),0.995 ± 0.015
17,PTTG1 (UniProt O95997),0.993 ± 0.021
18,P0DN76 and related entries (UniProt Q01081+P0DN76),1.1 ± 0.029

# Same assay, conditions: concentration: 0.5mM
row,Target,NP40-soluble protein abundance
1,UniProt P09525 and related entries,1 ± 0.059
2,PLEK (UniProt P08567),0.9869 ± 0.0088
3,UniProt P15529-2|P15529-3|P15529-4|P15529-5|P15529-6|P15529-7,0.988 ± 0.055
4,UniProt P16298 and related entries,0.974 ± 0.032
5,PLCG2 (UniProt P16885),0.982 ± 0.068
6,RPN1 (UniProt P04843),1.01 ± 0.042
7,RB1 (UniProt P06400),1 ± 0.022
8,DBI (UniProt P07108),1.06 ± 0.066
9,UniProt P09488 and related entries,1.02 ± 0.04
10,ETS1 (UniProt P14921),0.989 ± 0.027
11,P4HB (UniProt P07237),0.996 ± 0.048
12,HSPA5 (UniProt P11021),1.02 ± 0.077
13,UniProt P07954-2,1.01 ± 0.015
14,HSPA4L (UniProt O95757),1.01 ± 0.049
15,SPN (UniProt P16150),0.97 ± 0.031
16,SLC25A5 (UniProt P05141),1 ± 0.034
17,PAK4 (UniProt O96013),1 ± 0.03
18,LAMP1 (UniProt P11279),1.06 ± 0.094
19,UniProt P04921 and related entries,1.11 ± 0.1

row,Target,NP40-soluble protein abundance
1,FTH1 (UniProt P02794),1.01 ± 0.043
2,UniProt P16383 and related entries,1.05 ± 0.065
3,UCHL3 (UniProt P15374),1.038 ± 0.0099
4,UniProt P11498 and related entries,0.984 ± 0.015
5,ACADS (UniProt P16219),1.02 ± 0.071
6,GLUD1 (UniProt P00367),0.966 ± 0.024
7,UniProt P01737,0.999 ± 0.06
8,GAA (UniProt P10253),1.012 ± 0.0016
9,SLC2A3 (UniProt P11169),0.984 ± 0.014
10,UniProt P16930 and related entries,0.999 ± 0.049
11,UniProt O96017 and related entries,0.975 ± 0.059
12,H2AFX (UniProt P16104),1.01 ± 0.14
13,CRYZL1 (UniProt O95825),0.982 ± 0.021
14,PYGB (UniProt P11216),1 ± 0.068
15,HSP90AB1 (UniProt P08238),1.04 ± 0.032
16,LGALS1 (UniProt P09382),1.03 ± 0.028
17,PTTG1 (UniProt O95997),0.9698 ± 0.0063
18,P0DN76 and related entries (UniProt Q01081+P0DN76),1.04 ± 0.063
